Assay results as given in article PMC9544338.
No constants are given. Whether binding was seen depends on the method and setting. Binding seen in cells or lysates may run through a third protein. Some binding calls cover weakened binding; strength is not graded here. Sequences can lack the tags named with a protein. Values belong to the binder of their own block, whether it stands above or below them.

The chains behind the UniProt entries cited, without tags or fusion partners. Where a name states a change or a piece, a line headed by the entry shows the natural chain unless it says otherwise.
UniProt P09471: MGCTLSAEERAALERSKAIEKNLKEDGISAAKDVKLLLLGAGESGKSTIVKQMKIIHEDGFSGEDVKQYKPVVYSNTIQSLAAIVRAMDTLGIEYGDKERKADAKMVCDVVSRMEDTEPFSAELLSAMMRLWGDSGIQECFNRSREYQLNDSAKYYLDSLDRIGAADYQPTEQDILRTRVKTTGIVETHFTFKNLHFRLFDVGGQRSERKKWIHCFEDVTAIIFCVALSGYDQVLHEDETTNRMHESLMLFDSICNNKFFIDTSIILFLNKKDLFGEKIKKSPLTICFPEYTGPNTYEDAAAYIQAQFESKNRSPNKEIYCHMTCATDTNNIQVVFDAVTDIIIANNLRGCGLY

Key:
[1] = biological target: Gαo wild type (construct of fig. S2, tag not shown) (human) (UniProt P09471); assay: co-IP + pull-down; N2a cells cotransfected with Gαo variants and the Golgi partners (fig. S2, B to G); immunoprecipitation with anti-GFP nanobody or glutathione pull-down, which one for which partner was not shown
[2] = biological target: Gαo[E246K] (construct of fig. S2, tag not shown) (human) (UniProt P09471); assay: as above
[3] = biological target: Gαo[G203R] (construct of fig. S2, tag not shown) (human) (UniProt P09471); assay: as above
[4] = biological target: Gαo[R209C] (construct of fig. S2, tag not shown) (human) (UniProt P09471); assay: as above
[5] = biological target: Gαo-GFP (C-terminally tagged) wild type (human) (UniProt P09471); assay: co-IP; N2a cells cotransfected with His6-RGS19 and Gαo-GFP variants (internally or C-terminally tagged); cells untreated or treated with DMSO (100 μM ZnCl2 was ineffective); IP of Gαo with a nanobody against GFP; Western blot against GFP and His6
[6] = biological target: Gαo-GFP (internally tagged) wild type (human) (UniProt P09471); assay: as above
[7] = biological target: Gαo[E246K]-GFP (C-terminally tagged) (human) (UniProt P09471); assay: as above
[8] = biological target: Gαo[E246K]-GFP (internally tagged) (human) (UniProt P09471); assay: as above
[9] = biological target: Gαo[G203R]-GFP (C-terminally tagged) (human) (UniProt P09471); assay: as above
[10] = biological target: Gαo[G203R]-GFP (internally tagged) (human) (UniProt P09471); assay: as above
[11] = biological target: Gαo[Q205L]-GFP (internally tagged) (human) (UniProt P09471); assay: as above
[12] = biological target: Gαo[R209C]-GFP (C-terminally tagged) (human) (UniProt P09471); assay: as above
[13] = biological target: Gαo[R209C]-GFP (internally tagged) (human) (UniProt P09471); assay: as above
[14] = biological target: Gαo-GST-HA (C-terminally tagged) wild type (human) (UniProt P09471); assay: pull-down; N2a cells cotransfected with AGS3-GFP and Gαo-GST-HA variants; pull-down of Gαo from the lysate with glutathione beads; Western blot against HA and GFP; also after DMSO or 1 μM ZPT for 3 hours (ZPT increased the binding to G203R and decreased it to E246K)
[15] = biological target: Gαo[E246K]-GST-HA (C-terminally tagged) (human) (UniProt P09471); assay: as above
[16] = biological target: Gαo[G203R]-GST-HA (C-terminally tagged) (human) (UniProt P09471); assay: as above
[17] = biological target: Gαo[R209C]-GST-HA (C-terminally tagged) (human) (UniProt P09471); assay: as above

binding [1]: binds | binding [2]: binds | binding [3]: binds | binding [4]: binds
B1: GFP-Rab3a (protein, UniProt P20336 1-220)
chain: MASATDSRYGQKESSDQNFDYMFKILIIGNSSVGKTSFLFRYADDSFTPAFVSTVGIDFKVKTIYRNDKRIKLQIWDTAGQERYRTITTAYYRGAMGFILMYDITNEESFNAVQDWSTQIKTYSWDNAQVLLVGNKCDMEDERVVSSERGRQLADHLGFEFFEASAKDNINVKQTFERLVDVICEKMSESLDTADPAVTGAKQGPQLSDQQVPPHQDCAC

binding [5]: binds | binding [6]: binds | binding [7]: binds weakly | binding [8]: binds weakly | binding [9]: binds weakly | binding [10]: binds weakly | binding [11]: binds | binding [12]: binds weakly | binding [13]: binds weakly
B2: His6-RGS19 (protein, UniProt P49795 1-217)
chain: MPTPHEAEKQITGPEEADRPPSMSSHDTASPAAPSRNPCCLCWCCCCSCSWNQERRRAWQASRESKLQPLPSCEVCATPSPEEVQSWAQSFDKLMHSPAGRSVFRAFLRTEYSEENMLFWLACEELKAEANQHVVDEKARLIYEDYVSILSPKEVSLDSRVREGINKKMQEPSAHTFDDAQLQIYTLMHRDSYPRFLSSPTYRALLLQGPSQSSSEA

binding [14]: binds | binding [15]: binds | binding [16]: binds | binding [17]: binds
B3: AGS3-GFP (protein, UniProt Q86YR5 1-675)
chain: MAGPAPPVADELPGPAARRLYSRMEASCLELALEGERLCKAGDFKTGVAFFEAAVQVGTEDLKTLSAIYSQLGNAYFYLKEHGRALEYHKHDLLLARTIGDRMGEAKASGNLGNTLKVLGRFDEAAVCCQRHLSIAQEQGDKVGEARALYNIGNVYHAKGKQLSWNAANATQDPGHLPPDVRETLCKASEFYERNLSLVKELGDRAAQGRAYGNLGNTHYLLGNFTEATTFHKERLAIAKEFGDKAAERRAYSNLGNAHVFLGRFDVAAEYYKKTLQLSRQLRDQAVEAQACYSLGNTYTLLQDYERAAEYHLRHLLIAQELADRVGEGRACWSLGNAYVSMGRPAQALTFAKKHLQISQEIGDRHGELTARMNVAQLQLVLGRLTSPAASEKPDLAGYEAQGARPKRTQRLSAETWDLLRLPLEREQNGDSHHSGDWRGPSRDSLPLPVRSRKYQEGPDAERRPREGSHSPLDSADVRVHVPRTSIPRAPSSDEECFFDLLTKFQSSRMDDQRCPLDDGQAGAAEATAAPTLEDRIAQPSMTASPQTEEFFDLIASSQSRRLDDQRASVGSLPGLRITHSNAGHLRGHGEPQEPGDDFFNMLIKYQSSRIDDQRCPPPDVLPRGPTMPDEDFFSLIQRVQAKRMDEQRVDLAGGPEQGAGGPPEPQQQCQPGAS
